Our source for the binding values is patent US20230057904A1 (Chugai, published 2023).

Results are given in words; binding and its absence hold for the method and conditions named. Some binding calls cover weakened binding; strength is not graded here.

Experiment [1] has as its target T1, human CLDN6 (Claudin-6) (human, UniProt P56747 1-220).
T1 construct: also called hCLDN6; human Claudin 6
T1 chain: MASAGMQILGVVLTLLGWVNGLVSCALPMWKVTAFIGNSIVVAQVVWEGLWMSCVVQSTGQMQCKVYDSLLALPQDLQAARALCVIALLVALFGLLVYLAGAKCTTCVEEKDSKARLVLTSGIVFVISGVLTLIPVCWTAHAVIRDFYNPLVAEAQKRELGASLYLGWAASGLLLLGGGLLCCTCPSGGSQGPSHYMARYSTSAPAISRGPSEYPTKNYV
Put plainly: flow cytometry on hCLDN6/BaF, 15 micro g/ml. In general terms: A flow cytometer gives signals particle by particle.

Experiment [2] addresses T1, human CLDN6 (Claudin-6). Put plainly: flow cytometry on hCLDN6/BaF (Ba/F3 transfectant), 15 micro g/ml antibody, Alexa Fluor 488 anti-human IgG; histogram against KLH/TR01.
Experiment [3] has as its target T1, human CLDN6 (Claudin-6). The experiment can be described thus: flow cytometry on hCLDN6/BaF, MFI.
In experiment [4] the target is T1, human CLDN6 (Claudin-6). The experiment can be described thus: flow cytometry (FCM) on hCLDN6/BaF cells, anti-human IgG PE secondary; MFI; antibody concentration not given.
In experiment [5] the target is T1, human CLDN6 (Claudin-6). The experiment can be described thus: flow cytometry on FreeStyle 293-F transfectants, 10 micro g/mL.
For experiment [6], the target named is T1, human CLDN6 (Claudin-6). Put plainly: flow cytometry, FreeStyle 293-F transfectants expressing human CLDN6, 10 micro g/mL antibody, anti-human IgG Alexa Fluor 647; MFI.

B1: CS2961 (bispecific antibody, human IgG1, kappa, L234A L235A, N297A)
heavy 1: QVQLVESGGGVVQPGGSLRLSCAASGFTFSSYTMSWVREAPGQGLEWMGTISSGGGRTYYPDSVKGRFTISRDNSKNTLYLQMNSLRDEDTAVYYCARGDYRYDGFAYWGEGTLVTVSSASTKGPSVFPLAPSSKSTSGGTAALGCLVEDYFPEPVTVSWNSGALTSGVHTFPAVLESSGLYSLSSVVTVPSSSLGTQTYICNVNHKPSNTKVDERVEPKSCDKTHTCPPCPAPEAAGGPKVFLFPPKPKDTLMISRTPEVTCVVVDVSHEDPEVKFNWYVDGVEVHNAKTKPREEQYASTYRVVSVLTVLHQDWLNGKEYKCKVSNKGLPSSIEKTISKAKGQPREPQVYTLPPSREEMTKNQVSLTCLVKGFYPSDIAVEWESNGQPENNYKTTPPVLDSDGSFFLYSKLTVDKSRWQQGNVFSCSVMHEALHNHYTQESLSLSP
light 1: DIQMTQSPSSLSASVGDRVTITCRASYNIDSYLAWYQKKPGKAPELLIYYSTLLVDGVPDRFSGSRSGTDFTLTISSLQPEDFATYYCQHYYSIPYTFGQGTKVEIERTVAAPSVFIFPPSDKQLKSGTAKVVCLLNNFYPREAKVQWKVDNALQSGNSKESVTEQDSKDSTYSLSSTLTLSKADYEKHKVYACEVTHQGLSSPVTKSFNRGEC
heavy 2: QVQLVESGGGVVQPGGSLRLSCAASGFTFSNAWMHWVRKAPGKGLEWVAQIKDKSQNYATYVAESVKGRFTISRADSKNSIYLQMNSLKTEDTAVYYCRYVHYAAGYGVDIWGQGTTVTVSSASTKGPSVFPLAPSSKSTSGGTAALGCLVKDYFPEPVTVSWNSGALTSGVHTFPAVLKSSGLYSLSSVVTVPSSSLGTQTYICNVNHKPSNTKVDKRVEPKSCDKTHTCPPCPAPEAAGGPKVFLFPPKPKDTLMISRTPEVTCVVVDVSHEDPEVKFNWYVDGVEVHNAKTKPREEQYASTYRVVSVLTVLHQDWLNGKEYKCKVSNKGLPSSIEKTISKAKGQPREPQVYTLPPSRKEMTKNQVSLTCLVKGFYPSDIAVEWESNGQPENNYKTTPPVLDSDGSFFLYSKLTVDKSRWQQGNVFSCSVMHEALHNHYTQKSLSLSP
light 2: DIVMTQSPLSLPVTPGEPASISCRSSQPLVHSNRNTYLHWYQEKPGQAPRLLIYKVSNRFSGVPDRFSGSGSGTDFTLKISRVEAEDVGVYYCGQGTQVPYTFGQGTKLEIKRTVAAPSVFIFPPSDEQLKSGTAEVVCLLNNFYPREAKVQWKVDNALQSGNSEESVTEQDSKDSTYSLSSTLELSKADYEKHKVYACEVTHQGLSSPVTKSFNRGEC
notes: also called 65HQ39E-SG1212/54L0532Q38K-SK1021//TR01 arm with SG1213/SK1017
B1: the binding entry with human CLDN6 (Claudin-6) [1] and in the experiment with human CLDN6 (Claudin-6) [2] was “binds” in each case.

B2: antibody comprising designed VH 25H and AE3.20L (antibody, human IgG1, kappa, V domains shown)
VH: QVQLVESGGGVVQPGRSLRLSCAASGFTFSSYTMSWVRQAPGQGLEWMGTISSGGGRTYYPDSVKGRFTISRDNSKNTLYLQMNSLRAEDTAVYYCARGDYRYDGFAYWGQGTLVTVSS
VL: DIQMTQSPASLSASVGETVTITCRASENIDSYLAWYQQKQGKSPQLLVYASTLLVDGVPSRFSGSRSGTQFSLKINSLQSEDVARYYCQHYYSIPYTFGSGTKLEIKR
Regarding B2, the binding result in the experiment with human CLDN6 (Claudin-6) [3] and with human CLDN6 (Claudin-6) [4] was “binds” throughout.

B3: AE3-20/TR01 (bispecific antibody, V domains shown)
VH 1: EVKLVESGGGLVKPGGSLKLSCAASGFTFNSYTMSWVRQTPAKRLEWVVTISSGGGRTYYPDSVKGRFTISRDNARNTLYLQMSSLRSEDTAMYYCIRGDYRYDGFAYWGQGTLVTVST
VL 1: DIQMTQSPASLSASVGETVTITCRASENIDSYLAWYQQKQGKSPQLLVYASTLLVDGVPSRFSGSRSGTQFSLKINSLQSEDVARYYCQHYYSIPYTFGSGTKLEIK
VH 2: QVQLVESGGGVVQPGGSLRLSCAASGFTFSNAWMHWVRQAPGKGLEWVAQIKDKSQNYATYVAESVKGRFTISRADSKNSIYLQMNSLKTEDTAVYYCRYVHYAAGYGVDIWGQGTTVTVSS
VL 2: DIVMTQSPLSLPVTPGEPASISCRSSQPLVHSNRNTYLHWYQQKPGQAPRLLIYKVSNRFSGVPDRFSGSGSGTDFTLKISRVEAEDVGVYYCGQGTQVPYTFGQGTKLEIK
notes: also called anti-CLDN6/CD3 bispecific antibody AE3-20/TR01; AE3.20H/AE3.20L//TR01
With B3, the binding entry with human CLDN6 (Claudin-6) [5] and with human CLDN6 (Claudin-6) [6] was “binds” in each case.

B4: CS2201 (bispecific antibody, V domains shown)
VH 1: QVQLVESGGGVVQPGRSLRLSCAASGFTFSSYTMSWVRQAPGQGLEWMGTISSGGGRTYYPDSVKGRFTISRDNSKNTLYLQMNSLRAEDTAVYYCARGDYRYDGFAYWGQGTLVTVSS
VL 1: DIQMTQSPSSLSASVGDRVTITCRASYNIDSYLAWYQQKPGKAPKLLIYYSTLLVDGVPSRFSGSRSGTDFTLTISSLQPEDFATYYCQHYYSIPYTFGQGTKLEIK
VH 2: QVQLVESGGGVVQPGGSLRLSCAASGFTFSNAWMHWVRQAPGKGLEWVAQIKDKSQNYATYVAESVKGRFTISRADSKNSIYLQMNSLKTEDTAVYYCRYVHYAAGYGVDIWGQGTTVTVSS
VL 2: DIVMTQSPLSLPVTPGEPASISCRSSQPLVHSNRNTYLHWYQQKPGQAPRLLIYKVSNRFSGVPDRFSGSGSGTDFTLKISRVEAEDVGVYYCGQGTQVPYTFGQGTKLEIK
notes: Fab arm exchange, silent Fc; also called 25H/20L0532//TR01
With B4, the binding entry with human CLDN6 (Claudin-6) [1] and with human CLDN6 (Claudin-6) [2] was “binds” throughout.

B5: AH05/TR01 (bispecific antibody, V domains shown)
VH 1: EVQVEQSGPELVKPGASVKISCKTSGYTFTEYTMHWVKQSHGKSLEWIGGINPNNGNTRYNQKFKGKATLTVDKSSSTAYMELRTLTSEDSAVYYCARCGDFDLFFFFAYWGQGTLVTVSA
VL 1: DIVMTQSQKFMSTSVGDRVSVTCKASQNVGSNVAWYQQKPGQSPEGLISSASSRFSGVPDRFTGSGSGTDFTLTITNVQSEDLAEYFCQQYNSYPFTFGSGTELEIK
VH 2: QVQLVESGGGVVQPGGSLRLSCAASGFTFSNAWMHWVRQAPGKGLEWVAQIKDKSQNYATYVAESVKGRFTISRADSKNSIYLQMNSLKTEDTAVYYCRYVHYAAGYGVDIWGQGTTVTVSS
VL 2: DIVMTQSPLSLPVTPGEPASISCRSSQPLVHSNRNTYLHWYQQKPGQAPRLLIYKVSNRFSGVPDRFSGSGSGTDFTLKISRVEAEDVGVYYCGQGTQVPYTFGQGTKLEIK
notes: IgG format by Fab arm exchange, silent Fc; also called anti-CLDN6/CD3 bispecific antibody AH05/TR01
Consider B5, for which the binding result with human CLDN6 (Claudin-6) [1], in the experiment with human CLDN6 (Claudin-6) [5], with human CLDN6 (Claudin-6) [6] and with human CLDN6 (Claudin-6) [2] was “binds” each time.

B6: CDA0013/TR01 (bispecific antibody, V domains shown)
VH 1: QSLEESGGRLVTPGTPLTLTCTVSGIDLNNYGVGWVRQPPGKGLEWIGYINALGSAYYASWAKGRFTISRTSTTVDLKITSPTTEDTATYFCARVRYLYIGGGGYWIDRLDLWGQGTLVTVSS
VL 1: DVVMTQTPASVEAAVGDTVTIKCQASQSISSCLSWYQQKPGQPPKLLIYYASTLASGVPSRFSGSGSGTEFTLTISGLQCDDAATYYCLGVVSYVSADGGFGGGTEVVVK
VH 2: QVQLVESGGGVVQPGGSLRLSCAASGFTFSNAWMHWVRQAPGKGLEWVAQIKDKSQNYATYVAESVKGRFTISRADSKNSIYLQMNSLKTEDTAVYYCRYVHYAAGYGVDIWGQGTTVTVSS
VL 2: DIVMTQSPLSLPVTPGEPASISCRSSQPLVHSNRNTYLHWYQQKPGQAPRLLIYKVSNRFSGVPDRFSGSGSGTDFTLKISRVEAEDVGVYYCGQGTQVPYTFGQGTKLEIK
notes: CDA0013 is rabbit-derived; IgG format by Fab arm exchange, silent Fc; also called anti-CLDN6/CD3 bispecific antibody CDA0013/TR01
Turning to B6, the binding result with human CLDN6 (Claudin-6) [5] and with human CLDN6 (Claudin-6) [6] was “binds” throughout.
